{"sequences": {"note": "Chains of the proteins cited; added tags and fusions are not shown. Lines headed by an entry give the natural chain unless they say otherwise; changes in a name come on top.", "UniProt Q9UN81": "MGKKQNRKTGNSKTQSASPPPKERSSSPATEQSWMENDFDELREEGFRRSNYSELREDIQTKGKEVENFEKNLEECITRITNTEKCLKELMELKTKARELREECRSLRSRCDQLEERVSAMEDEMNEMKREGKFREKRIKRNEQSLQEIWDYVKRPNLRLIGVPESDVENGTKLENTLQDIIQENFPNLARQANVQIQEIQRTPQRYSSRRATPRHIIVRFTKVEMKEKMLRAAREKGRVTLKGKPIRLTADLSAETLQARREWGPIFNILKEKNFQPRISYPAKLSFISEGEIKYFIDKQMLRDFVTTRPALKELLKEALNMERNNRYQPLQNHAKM", "UniProt Q9Y3Z3": "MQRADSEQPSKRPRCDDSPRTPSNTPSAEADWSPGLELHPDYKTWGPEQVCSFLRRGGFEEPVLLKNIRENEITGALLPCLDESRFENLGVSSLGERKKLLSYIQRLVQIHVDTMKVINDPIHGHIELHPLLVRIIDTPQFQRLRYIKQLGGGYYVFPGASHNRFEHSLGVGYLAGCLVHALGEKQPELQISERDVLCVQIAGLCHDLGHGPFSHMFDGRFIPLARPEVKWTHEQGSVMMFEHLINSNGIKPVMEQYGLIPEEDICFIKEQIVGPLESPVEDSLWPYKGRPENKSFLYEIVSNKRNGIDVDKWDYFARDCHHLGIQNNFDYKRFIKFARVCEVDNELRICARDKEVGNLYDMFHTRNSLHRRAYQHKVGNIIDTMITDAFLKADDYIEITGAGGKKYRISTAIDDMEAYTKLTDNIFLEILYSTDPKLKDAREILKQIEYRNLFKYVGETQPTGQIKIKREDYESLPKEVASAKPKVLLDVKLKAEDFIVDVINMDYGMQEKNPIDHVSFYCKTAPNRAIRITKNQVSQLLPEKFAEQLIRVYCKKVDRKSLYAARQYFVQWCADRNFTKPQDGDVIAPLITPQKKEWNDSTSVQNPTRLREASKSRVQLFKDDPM"}, "source": "paper PMC5872582", "biological_target": "L1 ORF1p-FLAG (ORF1 from the L1 subfamily RP in pcDNA3.1) (human) (UniProt Q9UN81)", "test": "co-IP; 293T cells cotransfected with ORF1p-FLAG or ORF2p-3xFLAG plasmid and SAMHD1 T592A; L1 proteins precipitated with anti-FLAG M2 antibody on magnetic beads; immunoblot with anti-myc", "note": "Results are given in words; binding and its absence hold for the method and conditions named. In cells and extracts the contact can be indirect. Some entries that bind do so weakly or less than the wild type."}
{"substance": "human SAMHD1 T592A, myc-tagged (from UniProt Q9Y3Z3 1-626)", "values": [{"measurement": "binding", "result": "binds weakly"}]}
